Binding data for 1 molecule are collected here from paper PMC11208599.

The assay concerns the target TNIP3 expressed from adenovirus in cardiomyocytes. Kind of assay: co-IP; cardiomyocytes infected with the indicated adenovirus.

These are yes or no findings as the source states them, for the method shown. In cells and extracts the contact can be indirect. A result given as binding can be weak or reduced; the word gives no strength.

B1: STAT1 in cardiomyocytes (protein, UniProt Q9QXK0 1-749)
chain: MSQWFELQQLDSKFLEQVHQLYDDSFPMEIRQYLAQWLEKQDWEHAAYDVSFATIRFHDLLSQLDDQYSRFSLENNFLLQHNIRKSKRNLQDNFQEDPVQMSMIIHNCLKEERKILENAQRFNQAQEGNIQNTVMLDKQKELDSKVRNVKDQVMCIEHEIKTLEDLQDEYDFKCKTSQNRESEANGVAKSDQKQEQLLLHKMFLMLDNKRKEIIHKIRELLNSIELTQNTLINDELVEWKRRQQSACIGGPPNACLDQLQSWFTIVAESLQQVRQQLKKLEELEQKFTYEQDPITKNKQVLSDRTFVLFQQLIQSSFVVERQPCMPTHPQRPLVLKTGVQFTVKLRLLVKLQELNYNLKVKVSFDKDVNEKNTVKGFRKFNILGTHTKVMNMEESTNGSLAAEFRHLQLKEQKNAGNRTNEGPLIVTEELHSLSFETQLCQPGLVIDLETTSLPVVVISNVSQLPSGWASILWYNMLVTEPRNLSFFLNPPCAWWSQLSEVLSWQFSSVTKRGLNADQLSMLGEKLLGPNAGPDGLIPWTRFCKENINDKNFSFWPWIDTILELIKKHLLCLWNDGCIMGFISKERERALLKDQQPGTFLLRFSESSREGAITFTWVERSQNGGEPDFHAVEPYTKKELSAVTFPDIIRNYKVMAAENIPENPLKYLYPNIDKDHAFGKYYSRPKEAPEPMELDDPKRTGYIKTELISVSEVHPSRLQSTENLLPMSPEEFDEMSKIVGSEFDSMMSAV
Consider B1, for which the binding result is reported as “binds”.
